# Results are given in words; binding and its absence hold for the method and conditions named. Binding seen in cells or lysates may run through a third protein. A yes stands for co-enrichment or nearness to the bait. Other partners may have been found.
# By UniProt entry, the sequences of proteins in these tests, tags left out.
# UniProt Q07243: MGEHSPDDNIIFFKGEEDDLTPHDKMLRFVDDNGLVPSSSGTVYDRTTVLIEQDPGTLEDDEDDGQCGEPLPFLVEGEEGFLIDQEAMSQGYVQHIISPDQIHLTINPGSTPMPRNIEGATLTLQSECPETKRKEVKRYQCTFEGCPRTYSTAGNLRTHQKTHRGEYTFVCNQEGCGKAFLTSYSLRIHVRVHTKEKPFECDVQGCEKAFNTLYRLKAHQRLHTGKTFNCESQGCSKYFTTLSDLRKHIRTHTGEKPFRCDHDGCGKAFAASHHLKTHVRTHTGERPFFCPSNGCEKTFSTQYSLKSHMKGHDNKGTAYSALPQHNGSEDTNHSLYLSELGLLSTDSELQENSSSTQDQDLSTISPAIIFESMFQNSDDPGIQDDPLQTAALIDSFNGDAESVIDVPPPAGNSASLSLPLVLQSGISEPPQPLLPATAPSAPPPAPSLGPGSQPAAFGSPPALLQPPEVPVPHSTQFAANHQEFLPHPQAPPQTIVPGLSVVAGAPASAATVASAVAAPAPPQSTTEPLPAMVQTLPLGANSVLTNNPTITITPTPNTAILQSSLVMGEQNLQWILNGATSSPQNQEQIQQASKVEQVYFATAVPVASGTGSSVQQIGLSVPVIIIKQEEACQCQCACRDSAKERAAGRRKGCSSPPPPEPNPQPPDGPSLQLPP
# UniProt A2BH40: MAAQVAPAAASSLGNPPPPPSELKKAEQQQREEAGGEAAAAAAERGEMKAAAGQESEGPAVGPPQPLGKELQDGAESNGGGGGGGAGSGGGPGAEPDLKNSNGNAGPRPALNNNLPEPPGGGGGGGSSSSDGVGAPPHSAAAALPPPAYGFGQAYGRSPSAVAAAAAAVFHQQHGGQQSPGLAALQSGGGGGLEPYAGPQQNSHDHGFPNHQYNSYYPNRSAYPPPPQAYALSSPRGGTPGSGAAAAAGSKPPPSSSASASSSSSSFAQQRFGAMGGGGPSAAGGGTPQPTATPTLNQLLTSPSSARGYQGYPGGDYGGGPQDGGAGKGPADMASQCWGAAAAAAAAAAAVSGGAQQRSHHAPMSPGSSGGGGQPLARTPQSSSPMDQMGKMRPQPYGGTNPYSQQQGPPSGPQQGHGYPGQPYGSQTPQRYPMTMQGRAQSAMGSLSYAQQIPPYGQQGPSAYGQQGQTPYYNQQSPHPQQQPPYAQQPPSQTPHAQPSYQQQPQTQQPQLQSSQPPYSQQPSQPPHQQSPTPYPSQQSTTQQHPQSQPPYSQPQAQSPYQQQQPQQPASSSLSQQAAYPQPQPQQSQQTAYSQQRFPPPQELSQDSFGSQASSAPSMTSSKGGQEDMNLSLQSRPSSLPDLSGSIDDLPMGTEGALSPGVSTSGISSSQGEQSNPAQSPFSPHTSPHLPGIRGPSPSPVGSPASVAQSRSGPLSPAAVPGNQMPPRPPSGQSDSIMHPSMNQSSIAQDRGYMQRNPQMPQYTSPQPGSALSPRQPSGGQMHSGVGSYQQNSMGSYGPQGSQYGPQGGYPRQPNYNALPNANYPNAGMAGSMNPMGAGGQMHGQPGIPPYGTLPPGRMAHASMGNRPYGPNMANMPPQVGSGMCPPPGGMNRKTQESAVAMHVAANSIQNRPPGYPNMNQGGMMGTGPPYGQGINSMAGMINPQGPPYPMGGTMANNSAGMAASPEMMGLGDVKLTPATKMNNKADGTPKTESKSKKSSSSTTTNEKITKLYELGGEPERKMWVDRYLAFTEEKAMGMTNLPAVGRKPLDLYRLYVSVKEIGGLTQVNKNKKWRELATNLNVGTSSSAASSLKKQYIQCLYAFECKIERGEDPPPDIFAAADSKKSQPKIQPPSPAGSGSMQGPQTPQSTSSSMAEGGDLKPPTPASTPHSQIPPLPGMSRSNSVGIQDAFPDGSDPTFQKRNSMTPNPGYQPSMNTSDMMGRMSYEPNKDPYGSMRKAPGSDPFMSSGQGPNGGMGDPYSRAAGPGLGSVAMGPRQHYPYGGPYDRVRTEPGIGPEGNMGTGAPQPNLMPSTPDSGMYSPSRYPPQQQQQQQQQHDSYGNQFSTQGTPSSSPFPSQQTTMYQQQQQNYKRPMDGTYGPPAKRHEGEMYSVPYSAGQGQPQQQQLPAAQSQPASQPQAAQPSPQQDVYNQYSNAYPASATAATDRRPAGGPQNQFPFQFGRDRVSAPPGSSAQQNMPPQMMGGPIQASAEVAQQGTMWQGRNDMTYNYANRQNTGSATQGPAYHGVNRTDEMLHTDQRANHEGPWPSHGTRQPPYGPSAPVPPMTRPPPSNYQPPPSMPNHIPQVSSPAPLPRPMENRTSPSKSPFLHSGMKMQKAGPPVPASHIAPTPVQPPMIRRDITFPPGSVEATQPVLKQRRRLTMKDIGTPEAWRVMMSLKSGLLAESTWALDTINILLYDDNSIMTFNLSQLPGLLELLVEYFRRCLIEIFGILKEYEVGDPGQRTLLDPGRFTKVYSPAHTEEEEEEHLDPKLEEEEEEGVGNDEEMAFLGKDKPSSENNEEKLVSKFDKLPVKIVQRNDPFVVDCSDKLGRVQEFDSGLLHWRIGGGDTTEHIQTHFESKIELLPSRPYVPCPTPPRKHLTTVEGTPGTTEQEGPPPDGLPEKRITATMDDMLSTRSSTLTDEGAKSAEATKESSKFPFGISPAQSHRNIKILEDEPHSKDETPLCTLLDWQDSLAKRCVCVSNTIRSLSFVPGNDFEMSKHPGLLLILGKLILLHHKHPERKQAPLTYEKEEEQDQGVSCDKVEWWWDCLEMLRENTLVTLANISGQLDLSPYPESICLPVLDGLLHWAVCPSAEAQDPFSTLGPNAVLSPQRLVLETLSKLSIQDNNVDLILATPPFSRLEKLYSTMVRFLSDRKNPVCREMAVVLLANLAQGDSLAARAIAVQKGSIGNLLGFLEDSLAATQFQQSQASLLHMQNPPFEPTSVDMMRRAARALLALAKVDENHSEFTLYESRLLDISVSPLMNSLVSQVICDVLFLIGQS
# UniProt Q3TKT4: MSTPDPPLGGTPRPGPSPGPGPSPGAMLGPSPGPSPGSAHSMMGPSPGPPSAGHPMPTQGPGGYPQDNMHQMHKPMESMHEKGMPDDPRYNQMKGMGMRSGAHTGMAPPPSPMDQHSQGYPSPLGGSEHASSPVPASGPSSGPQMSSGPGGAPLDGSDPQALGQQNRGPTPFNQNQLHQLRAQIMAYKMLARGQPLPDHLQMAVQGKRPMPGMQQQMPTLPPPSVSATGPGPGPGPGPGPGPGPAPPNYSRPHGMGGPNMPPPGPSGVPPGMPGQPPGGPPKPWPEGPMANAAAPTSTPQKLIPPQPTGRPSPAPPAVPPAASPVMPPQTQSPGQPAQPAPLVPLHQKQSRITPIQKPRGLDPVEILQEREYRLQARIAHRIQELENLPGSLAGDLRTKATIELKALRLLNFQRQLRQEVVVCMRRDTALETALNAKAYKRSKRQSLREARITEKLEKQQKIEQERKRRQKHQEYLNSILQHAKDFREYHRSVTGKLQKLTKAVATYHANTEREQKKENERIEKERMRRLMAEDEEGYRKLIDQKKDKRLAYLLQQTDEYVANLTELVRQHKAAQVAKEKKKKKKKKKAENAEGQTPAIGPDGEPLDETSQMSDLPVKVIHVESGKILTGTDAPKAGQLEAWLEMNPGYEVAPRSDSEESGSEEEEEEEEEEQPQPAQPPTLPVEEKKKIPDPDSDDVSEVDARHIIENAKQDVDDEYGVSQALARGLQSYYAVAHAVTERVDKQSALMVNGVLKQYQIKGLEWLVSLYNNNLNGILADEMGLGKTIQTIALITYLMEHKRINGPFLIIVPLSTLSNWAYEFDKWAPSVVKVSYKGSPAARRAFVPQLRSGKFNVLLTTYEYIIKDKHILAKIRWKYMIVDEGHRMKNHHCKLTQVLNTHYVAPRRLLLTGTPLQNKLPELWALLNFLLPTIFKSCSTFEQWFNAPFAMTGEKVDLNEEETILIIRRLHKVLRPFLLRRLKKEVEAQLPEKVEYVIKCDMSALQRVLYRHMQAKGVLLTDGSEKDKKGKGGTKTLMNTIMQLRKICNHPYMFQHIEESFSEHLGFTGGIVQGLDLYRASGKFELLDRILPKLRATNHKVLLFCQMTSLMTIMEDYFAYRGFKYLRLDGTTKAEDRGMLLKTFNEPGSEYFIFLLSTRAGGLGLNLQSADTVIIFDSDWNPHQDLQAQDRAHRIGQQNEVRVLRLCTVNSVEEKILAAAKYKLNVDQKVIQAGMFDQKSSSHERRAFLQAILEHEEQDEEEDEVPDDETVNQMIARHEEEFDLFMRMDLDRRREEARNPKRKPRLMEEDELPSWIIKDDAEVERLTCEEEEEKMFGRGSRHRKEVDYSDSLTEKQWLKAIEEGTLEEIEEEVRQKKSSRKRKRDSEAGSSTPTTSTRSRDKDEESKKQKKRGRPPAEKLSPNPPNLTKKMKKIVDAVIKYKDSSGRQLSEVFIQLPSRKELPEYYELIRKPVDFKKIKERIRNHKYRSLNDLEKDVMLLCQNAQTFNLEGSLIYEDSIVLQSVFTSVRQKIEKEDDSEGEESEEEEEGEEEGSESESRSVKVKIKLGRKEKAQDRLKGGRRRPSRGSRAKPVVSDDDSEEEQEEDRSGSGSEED
# UniProt Q8BSQ9: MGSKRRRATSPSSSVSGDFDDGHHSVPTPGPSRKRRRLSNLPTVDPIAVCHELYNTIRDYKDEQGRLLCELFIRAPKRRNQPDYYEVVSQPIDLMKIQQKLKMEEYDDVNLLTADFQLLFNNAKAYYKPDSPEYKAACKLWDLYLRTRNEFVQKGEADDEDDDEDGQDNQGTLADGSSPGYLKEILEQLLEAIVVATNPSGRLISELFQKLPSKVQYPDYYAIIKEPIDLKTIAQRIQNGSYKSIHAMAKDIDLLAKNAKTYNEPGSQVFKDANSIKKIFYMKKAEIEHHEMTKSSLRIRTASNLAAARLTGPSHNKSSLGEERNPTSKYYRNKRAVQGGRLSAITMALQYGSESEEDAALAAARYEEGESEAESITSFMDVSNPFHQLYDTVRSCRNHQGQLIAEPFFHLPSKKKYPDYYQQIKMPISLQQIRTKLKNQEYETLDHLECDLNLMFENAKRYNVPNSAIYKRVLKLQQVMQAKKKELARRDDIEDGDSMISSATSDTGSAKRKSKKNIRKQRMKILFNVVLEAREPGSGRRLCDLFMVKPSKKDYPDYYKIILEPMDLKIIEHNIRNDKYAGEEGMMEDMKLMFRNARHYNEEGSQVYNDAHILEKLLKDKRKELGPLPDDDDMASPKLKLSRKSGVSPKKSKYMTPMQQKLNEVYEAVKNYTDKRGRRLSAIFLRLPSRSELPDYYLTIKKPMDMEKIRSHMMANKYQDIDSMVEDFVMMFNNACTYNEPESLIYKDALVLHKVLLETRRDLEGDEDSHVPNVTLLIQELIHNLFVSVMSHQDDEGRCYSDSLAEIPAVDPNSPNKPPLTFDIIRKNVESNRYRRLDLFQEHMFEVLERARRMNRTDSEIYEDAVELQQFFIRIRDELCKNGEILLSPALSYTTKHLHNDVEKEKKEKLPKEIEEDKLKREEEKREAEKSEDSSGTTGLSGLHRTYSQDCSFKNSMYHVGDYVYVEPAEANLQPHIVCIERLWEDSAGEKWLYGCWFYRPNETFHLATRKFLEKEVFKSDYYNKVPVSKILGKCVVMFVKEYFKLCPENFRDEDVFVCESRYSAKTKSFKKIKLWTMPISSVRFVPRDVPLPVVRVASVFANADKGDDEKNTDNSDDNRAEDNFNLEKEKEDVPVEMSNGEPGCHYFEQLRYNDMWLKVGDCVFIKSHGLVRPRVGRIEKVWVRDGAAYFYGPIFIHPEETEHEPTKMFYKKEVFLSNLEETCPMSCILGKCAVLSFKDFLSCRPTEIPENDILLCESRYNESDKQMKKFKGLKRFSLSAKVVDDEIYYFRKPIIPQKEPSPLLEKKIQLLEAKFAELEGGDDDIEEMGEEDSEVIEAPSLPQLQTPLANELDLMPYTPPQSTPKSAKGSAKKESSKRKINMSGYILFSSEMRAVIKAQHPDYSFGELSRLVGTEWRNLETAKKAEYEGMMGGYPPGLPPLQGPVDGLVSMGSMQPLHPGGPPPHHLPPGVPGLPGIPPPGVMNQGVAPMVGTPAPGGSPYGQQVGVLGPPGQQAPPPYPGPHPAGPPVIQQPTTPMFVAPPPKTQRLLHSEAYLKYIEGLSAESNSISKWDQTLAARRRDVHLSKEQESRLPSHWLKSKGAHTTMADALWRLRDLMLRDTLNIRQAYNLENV
# Target: Mtf1 (metal-responsive transcription factor) (mouse (endogenous in C2C12)) (UniProt Q07243)
# Assay: affinity purification with mass spectrometry
row,binding,Substance
1,binds,Baf250a (BAF-specific SWI/SNF subunit) (from UniProt A2BH40 1-2283)
2,binds,Brahma-related gene 1 (Brg1) (from UniProt Q3TKT4 1-1613)
3,binds,Baf180 (PBAF-specific SWI/SNF subunit) (from UniProt Q8BSQ9 1-1634)

# Source: publication doi:10.1101/2025.04.12.648552
